According to PMC8763003:
Results are given in words; binding and its absence hold for the method and conditions named. In cells and extracts the contact can be indirect. Some entries that bind do so weakly or less than the wild type.

The chains behind the UniProt entries cited, without tags or fusion partners.
UniProt Q13620: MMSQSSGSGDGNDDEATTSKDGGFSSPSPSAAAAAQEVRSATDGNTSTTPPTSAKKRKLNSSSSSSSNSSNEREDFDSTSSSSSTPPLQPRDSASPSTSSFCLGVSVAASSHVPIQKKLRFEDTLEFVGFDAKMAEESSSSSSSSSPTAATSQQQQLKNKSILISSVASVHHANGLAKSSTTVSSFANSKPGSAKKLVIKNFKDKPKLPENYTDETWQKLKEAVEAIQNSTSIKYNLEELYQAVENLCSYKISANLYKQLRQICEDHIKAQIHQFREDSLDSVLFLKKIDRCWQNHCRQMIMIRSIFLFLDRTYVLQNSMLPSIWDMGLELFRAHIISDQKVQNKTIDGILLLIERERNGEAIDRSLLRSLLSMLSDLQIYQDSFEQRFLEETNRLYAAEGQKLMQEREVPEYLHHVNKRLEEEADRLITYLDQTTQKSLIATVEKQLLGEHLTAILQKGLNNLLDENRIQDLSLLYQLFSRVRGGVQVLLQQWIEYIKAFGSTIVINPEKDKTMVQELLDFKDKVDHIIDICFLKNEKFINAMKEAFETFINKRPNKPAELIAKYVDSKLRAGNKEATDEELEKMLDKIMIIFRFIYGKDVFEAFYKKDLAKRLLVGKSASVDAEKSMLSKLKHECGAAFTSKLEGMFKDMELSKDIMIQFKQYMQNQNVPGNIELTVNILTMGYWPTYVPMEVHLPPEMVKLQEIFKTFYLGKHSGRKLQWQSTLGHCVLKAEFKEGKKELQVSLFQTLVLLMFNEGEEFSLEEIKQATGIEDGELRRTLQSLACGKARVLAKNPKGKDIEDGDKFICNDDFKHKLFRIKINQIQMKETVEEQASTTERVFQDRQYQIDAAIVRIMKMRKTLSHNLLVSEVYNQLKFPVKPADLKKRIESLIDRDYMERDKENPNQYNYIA
UniProt Q16531: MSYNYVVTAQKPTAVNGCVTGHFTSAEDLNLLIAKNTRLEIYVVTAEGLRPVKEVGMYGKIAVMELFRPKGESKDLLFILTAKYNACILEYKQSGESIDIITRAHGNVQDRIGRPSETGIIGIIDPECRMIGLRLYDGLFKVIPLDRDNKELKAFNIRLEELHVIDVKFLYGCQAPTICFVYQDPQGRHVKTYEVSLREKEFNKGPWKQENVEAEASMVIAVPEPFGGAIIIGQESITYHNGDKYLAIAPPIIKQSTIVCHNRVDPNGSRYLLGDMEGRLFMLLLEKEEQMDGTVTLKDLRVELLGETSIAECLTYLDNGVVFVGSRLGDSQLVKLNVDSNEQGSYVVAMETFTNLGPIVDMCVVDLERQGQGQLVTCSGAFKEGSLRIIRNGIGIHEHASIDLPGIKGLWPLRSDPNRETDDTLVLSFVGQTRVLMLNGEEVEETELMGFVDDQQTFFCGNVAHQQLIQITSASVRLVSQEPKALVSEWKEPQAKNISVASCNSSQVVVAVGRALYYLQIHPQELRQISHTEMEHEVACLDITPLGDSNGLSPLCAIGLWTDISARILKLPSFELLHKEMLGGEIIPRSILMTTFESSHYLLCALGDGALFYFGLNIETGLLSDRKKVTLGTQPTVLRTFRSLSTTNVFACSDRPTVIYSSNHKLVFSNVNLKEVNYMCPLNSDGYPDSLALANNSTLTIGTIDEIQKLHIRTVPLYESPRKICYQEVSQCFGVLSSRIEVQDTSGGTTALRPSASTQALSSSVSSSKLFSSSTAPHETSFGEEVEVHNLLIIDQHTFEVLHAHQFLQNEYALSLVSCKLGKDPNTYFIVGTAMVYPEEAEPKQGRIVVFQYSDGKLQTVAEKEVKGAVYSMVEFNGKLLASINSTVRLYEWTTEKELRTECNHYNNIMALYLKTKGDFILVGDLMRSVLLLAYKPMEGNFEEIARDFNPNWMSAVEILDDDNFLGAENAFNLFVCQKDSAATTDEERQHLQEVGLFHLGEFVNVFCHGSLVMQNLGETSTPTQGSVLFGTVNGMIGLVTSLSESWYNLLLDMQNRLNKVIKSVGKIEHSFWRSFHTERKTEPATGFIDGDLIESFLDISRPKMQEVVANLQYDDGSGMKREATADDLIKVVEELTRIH

Molecular target: CUL4B (human (endogenous in HEK293)) (UniProt Q13620)
Assay: co-IP; lysate of HEK293 cells transfected with pcDNA3-HBx-HA (1% NP-40, 50 mM Tris-HCl pH 7.4, 50 mM EDTA, 150 mM NaCl); precipitated with anti-CUL4B at 4 °C overnight, protein A/G agarose; immunoblot; IgG as negative control

## UV-damaged DNA binding protein 1 (DDB1) (from UniProt Q16531 1-1140)
  binding: binds
